Test results from PubChem BioAssay AID651640 (Broad Institute, 2012).
“And” between values parts separate entries of the source, which are not always exact repeats. Equal values may be shown once. About 6,000 (1.7%) of roughly 350,000 compounds were called active. The inconclusive results got no clear call from the source; some entries with a clear call stand among them for comparison. No stated cut-off is given here; in the data, active means CPE inhibition above about 20% (passing the limit was not always enough); inconclusive means no clear call, values can overlap the other calls; tested in BHK-21 cells.

assay: protection of cells from dengue 2 killing – plate reader, single concentration, primary screen (AID 651640); conditions: DENV2-infected cells, cytopathic effect rescue, at 9.99 µM, stronger effect = higher value;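 further: 0% = median of neutral control wells and 100% = median of positive control wells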

Row | SMILES | CPE inhibition
1 | C[C@@H]1CCCCO[C@@H](CN(C)S(=O)(=O)c2cccs2)[C@H](C)CN([C@@H](C)CO)C(=O)c2cc(NC(=O)Nc3cccc4ccccc34)ccc2O1 | inconclusive: 34.2%
2 | COc1ccc(CNC(=O)C[C@@H]2C=C[C@H](NC(=O)c3cccc(F)c3)[C@H](CO)O2)cc1 | inactive: 18.4%
3 | COc1ccc2c3c([nH]c2c1)[C@@H](CO)N(Cc1ccccc1Cl)CC31CN(C(=O)C2CC2)C1 | active: 23.2%
4 | COc1ccccc1CNC(=O)C[C@@H]1CC[C@@H]2[C@H](COC[C@@H](O)CN2C(=O)Nc2ccccc2)O1 | inconclusive: 73.7%
5 | COC(=O)c1ccsc1NC(=O)c1ccco1 | inconclusive: 20.6%
6 | O=C(CCCCCN1C(=O)[C@@H]2Cc3ccccc3CN2C1=O)N[C@@H](Cc1ccc(O)cc1)C(=O)O | inconclusive: 42.9%
7 | Cc1cccc(S(=O)(=O)N2CCCc3ccccc32)c1 | inactive: 7.22%
8 | COc1c2c(cc3oc(C)cc(=O)c13)OC(C(C)(C)OC1OC(CO)C(O)C(O)C1O)C2 (centres undefined) | inconclusive: 53.7%
9 | COCC(=O)N1CCC2(CC1)CN(C(=O)CN1CCOCC1)[C@H](CO)c1c2c2ccc(OC)cc2n1C | inactive: 10.6%
10 | C[C@H](CO)N1C[C@H](C)[C@H](CN(C)Cc2cccc(F)c2)Oc2ncc(Br)cc2C1=O | inactive: -7.11% and inactive: -3.7% and inactive: -6.23%
11 | C[C@@H]1CCCCO[C@H](CN(C)S(=O)(=O)c2ccc(Cl)cc2)[C@@H](C)CN([C@@H](C)CO)C(=O)c2cc(NC(=O)Nc3ccc(F)cc3)ccc2O1 | active: 23.4%
12 | CCOC(=O)c1c(C)[nH]c(C(=O)COC(=O)c2cnccn2)c1C | inconclusive: 20.2%
13 | CN1C(=O)c2cc(NC(=O)c3cccs3)ccc2OC[C@H]2O[C@@H](CC(=O)NCCN3CCCCC3)CC[C@H]21 | inactive: 3.78%
14 | COC(C[C@H](O)C[C@H](O)COCc1ccccc1)OC | inconclusive: 21.3%
15 | Cc1cccc2sc(=S)[nH]c12 | inconclusive: 42.6%
16 | O=C(NOC(=O)c1ccccc1F)c1ccc(OC(F)F)cc1 | inconclusive: 34%
17 | O=C(C[C@H]1CC[C@H]2[C@@H](COC[C@@H](O)CN2S(=O)(=O)c2cccc(F)c2)O1)Nc1ccc(-c2ccccc2)cc1 | inconclusive: 65.5%
18 | C[C@H](CO)N1C[C@H](C)[C@H](CN(C)C(=O)Nc2ccc3c(c2)OCO3)Oc2ncc(-c3cccnc3)cc2C1=O | inconclusive: 24.1%
19 | O=C(Nc1ccccc1F)N[C@@H]1CC[C@@H](CCNC(=O)C2CCCC2)O[C@@H]1CO | inactive: 5.14%
20 | CC(C)NC(=O)Nc1ccc2c(c1)C(=O)N(C)[C@@H]1CC[C@H](CC(=O)NCc3ccc(F)cc3)O[C@@H]1CO2 | inconclusive: 29.2%
21 | NC[C@H](Cc1ccccc1)NCCCCC1CCCCC1 | active: 35.5%
22 | CCCNC(=O)N1CCC2(CC1)CN(C(=O)c1cccnc1)[C@@H](CO)c1[nH]c3cc(OC)ccc3c12 | inconclusive: 46.2%
23 | O=C(C1CCOCC1)N1CC[C@@H]2[C@H]1c1cc(-c3ccc(F)cc3)ccc1N[C@@H]2CO | inactive: -6.24%

A different layout for part of the listing above:

| Row | SMILES | CPE inhibition |
| --- | --- | --- |
| 4 | COc1ccccc1CNC(=O)C[C@@H]1CC[C@@H]2[C@H](COC[C@@H](O)CN2C(=O)Nc2ccccc2)O1 | inconclusive: 73.7% |
| 5 | COC(=O)c1ccsc1NC(=O)c1ccco1 | inconclusive: 20.6% |
| 6 | O=C(CCCCCN1C(=O)[C@@H]2Cc3ccccc3CN2C1=O)N[C@@H](Cc1ccc(O)cc1)C(=O)O | inconclusive: 42.9% |
| 7 | Cc1cccc(S(=O)(=O)N2CCCc3ccccc32)c1 | inactive: 7.22% |
| 8 | COc1c2c(cc3oc(C)cc(=O)c13)OC(C(C)(C)OC1OC(CO)C(O)C(O)C1O)C2 (centres undefined) | inconclusive: 53.7% |
| 9 | COCC(=O)N1CCC2(CC1)CN(C(=O)CN1CCOCC1)[C@H](CO)c1c2c2ccc(OC)cc2n1C | inactive: 10.6% |
| 10 | C[C@H](CO)N1C[C@H](C)[C@H](CN(C)Cc2cccc(F)c2)Oc2ncc(Br)cc2C1=O | inactive: -7.11% and inactive: -3.7% and inactive: -6.23% |
| 11 | C[C@@H]1CCCCO[C@H](CN(C)S(=O)(=O)c2ccc(Cl)cc2)[C@@H](C)CN([C@@H](C)CO)C(=O)c2cc(NC(=O)Nc3ccc(F)cc3)ccc2O1 | active: 23.4% |
| 12 | CCOC(=O)c1c(C)[nH]c(C(=O)COC(=O)c2cnccn2)c1C | inconclusive: 20.2% |
| 13 | CN1C(=O)c2cc(NC(=O)c3cccs3)ccc2OC[C@H]2O[C@@H](CC(=O)NCCN3CCCCC3)CC[C@H]21 | inactive: 3.78% |
| 14 | COC(C[C@H](O)C[C@H](O)COCc1ccccc1)OC | inconclusive: 21.3% |
| 15 | Cc1cccc2sc(=S)[nH]c12 | inconclusive: 42.6% |
| 16 | O=C(NOC(=O)c1ccccc1F)c1ccc(OC(F)F)cc1 | inconclusive: 34% |
| 17 | O=C(C[C@H]1CC[C@H]2[C@@H](COC[C@@H](O)CN2S(=O)(=O)c2cccc(F)c2)O1)Nc1ccc(-c2ccccc2)cc1 | inconclusive: 65.5% |
| 18 | C[C@H](CO)N1C[C@H](C)[C@H](CN(C)C(=O)Nc2ccc3c(c2)OCO3)Oc2ncc(-c3cccnc3)cc2C1=O | inconclusive: 24.1% |
| 19 | O=C(Nc1ccccc1F)N[C@@H]1CC[C@@H](CCNC(=O)C2CCCC2)O[C@@H]1CO | inactive: 5.14% |

Additional structures follow:

Row | SMILES | CPE inhibition
24 | C[C@H](CO)N1C[C@H](C)[C@@H](CN(C)Cc2ccc(-c3ccccc3)cc2)Oc2ncc(C#CCN(C)C)cc2C1=O | inconclusive: 23.2%
25 | CCN1CCN(C(=O)/C=C/c2ccc(OC)cc2)CC1 | inactive: 3.64%
26 | C[C@@H]1CN([C@@H](C)CO)C(=O)c2cc(NC(=O)Nc3ccc(F)cc3)ccc2O[C@H]1CN(C)S(=O)(=O)c1ccc(Cl)cc1 | inactive: -12.3%
27 | C[C@H](CO)N1C[C@H](C)[C@H](CN(C)C(=O)NC2CCCCC2)Oc2ccc(NS(=O)(=O)c3ccccc3)cc2CC1=O | inconclusive: 40.4%
28 | COc1ccc(Cc2c(C3CCCCC3)nc3c(C)cc(Br)cn23)c(C)c1 | inconclusive: 109%
29 | Cc1cccc(S(=O)(=O)N2CC[C@@H]3[C@@H](CO)N(C)c4ccc(-c5ccc(C#N)cc5)cc4[C@@H]32)c1 | active: 45.4%
30 | CCC(=O)Nc1ccc2c(c1)C(=O)N(C)[C@H]1CC[C@@H](CC(=O)NCc3ccccc3)O[C@@H]1CO2 | inactive: -2.24%
31 | COC(=O)N[C@@H]1C[C@H]2[C@@H]3CC[C@H]4C[C@@H](OC)CC[C@]4(C)[C@H]3CC[C@]12C | inconclusive: 50.7%
32 | Cc1noc(C)c1NC(=O)Nc1ccc2c(c1)C(=O)N([C@H](C)CO)C[C@H](C)[C@@H](CN(C)C(=O)Nc1c(C)noc1C)OCCCC[C@@H](C)O2 | inconclusive: 26.4%
33 | COC(=O)c1c(NC(=O)Cc2ccccc2)sc2c1CCN(C(C)C)C2 | inconclusive: 23.6%
34 | C[C@@H]1CN([C@@H](C)CO)C(=O)c2cc(-c3ccc(F)cc3)cnc2O[C@H]1CN(C)Cc1cncnc1 | inactive: 10.5%
35 | C[C@H](CO)N1C[C@H](C)[C@@H](CN(C)S(=O)(=O)c2cn(C)cn2)Oc2ncc(C#CCN(C)C)cc2C1=O | inconclusive: 21.5%
36 | CC(C)N1CCCC(CNC(=O)CCc2nnc(CCCCc3ccccc3)o2)C1 (centres undefined) | inconclusive: 21.7%
37 | Cc1nn(-c2ccc(F)cc2)c(-n2cccc2)c1C(=O)N1CCN(C(=O)c2ccco2)CC1 | inconclusive: 40%
38 | C[C@@H]1CN([C@@H](C)CO)C(=O)Cc2cc(NC(=O)C3CC3)ccc2O[C@H]1CN(C)S(=O)(=O)c1ccc(Cl)cc1 | active: 70%
39 | C[C@H](CO)N1C[C@H](C)[C@@H](CN(C)CC2CC2)Oc2ccc(NC(=O)Nc3cccc4ccccc34)cc2CC1=O | inactive: -1.07%
40 | CCC(=O)Nc1ccc2c(c1)OC[C@H](C)N(C(=O)CC1CC1)C[C@H](C)[C@H](OC)CN(C)C2=O | inactive: -9.52%
41 | CCn1nc(CC(=O)O)c2ccccc2c1=O | inactive: 5.02%
42 | OC(c1ccccc1)C1(c2ccccc2)CCN(Cc2ccccc2)CC1 (centres undefined) | inconclusive: 27.9%
43 | Cc1c(C(=O)N2CCN(C3CCS(=O)(=O)C3)CC2)oc2c(F)cccc12 (centres undefined) | inconclusive: 31.7%
44 | COc1cc(C(=O)NNC(=S)NC(=O)/C=C/c2ccccc2)cc(OC)c1OC | inconclusive: 43.3%
45 | O=C(C1CCCC1)N1CC2(C1)[C@H](c1ccccc1)[C@H](CO)N2Cc1nccs1 | inconclusive: 20.5%
46 | O=C(Cc1cccc(NC(=O)C2CCCN(C(=O)C3CCCC3)C2)c1)Nc1ccc(C(=O)N2CCOCC2)cc1 (centres undefined) | active: 27.4%

Row | SMILES | CPE inhibition
47 | COc1ccc(S(=O)(=O)Nc2ccc3c(c2)CC(=O)N([C@H](C)CO)C[C@@H](C)[C@H](CN(C)S(=O)(=O)c2ccc(F)cc2)O3)cc1 | active: 43.3%
48 | O=C1CN(Cc2ccccc2)C[C@@H]2[C@H](c3ccc(Br)cc3)[C@@H](CO)N12 | inactive: -0.702%
49 | O=C(NCc1cc(Cl)cc(Cl)c1)c1csc([C@@H]2O[C@H](CO)[C@H](O)[C@H](O)[C@H]2O)n1 | inconclusive: 25.5%
50 | CN1CC(=O)N(CC(=O)NC2CCCCC2)C1=O | inconclusive: 43.8%
51 | COc1ccc(C(=O)N2CCCCC2c2cc(C(=O)NCc3cccnc3)no2)cc1 (centres undefined) | active: 32.8%
52 | Cc1ccc(S(=O)(=O)N2CC3C(=O)C[C@@H](c4ccccc4Cl)N(S(=O)(=O)c4ccc(C)cc4)C3CC2c2ccccc2)cc1 (some centres undefined) | inconclusive: 35.6%
53 | CC(=O)Nc1ccc2c(c1)C(=O)N(C)[C@H]1CC[C@@H](CC(=O)NCc3ccc(Cl)cc3)O[C@@H]1CO2 | inconclusive: 46.5%
54 | COc1cccc(N2C(=NC(=O)CCc3ccccc3)SC3CS(=O)(=O)CC32)c1 (centres undefined) | inconclusive: 25.1%
55 | COC(=O)c1scc(S(=O)(=O)C(C)(C)C)c1N | inconclusive: 64.5%
56 | N#Cc1cccc(NC(=O)CN2C(=O)NC3(CCCCCC3)C2=O)c1 | inconclusive: 37.2%
57 | CC(C)(C)c1cc[n+](-c2nc([O-])sc2C=O)cc1 | inactive: -7.31%
58 | C[C@@H]1CN([C@@H](C)CO)C(=O)c2cc(NC(=O)Cn3cnnn3)ccc2O[C@H]1CN(C)C | inconclusive: 24.6%
59 | Cc1ccc(C(=O)NN=C2CCCCCC2)s1 | inconclusive: 26.3%
60 | CC(C)(C)S(=O)N1Cc2cc(C(=O)NCc3ccc4c(c3)OCO4)nc(-c3cccc(-c4cccc(F)c4)c3)c2[C@@H]1CCO (some centres undefined) | active: 23.9%
61 | C[C@@H]1CCCCO[C@@H](CN(C)S(=O)(=O)c2ccccc2)[C@@H](C)CN([C@H](C)CO)C(=O)c2cc(NC(=O)Nc3ccccc3)ccc2O1 | active: 65.5%
62 | CCCC#Cc1ccc([C@H]2[C@@H](CO)N3CCCCN(S(C)(=O)=O)C[C@H]23)cc1 | inconclusive: 42%
63 | CCN(CC)CCN(C(=O)c1cc2c(ccc3ccccc32)oc1=O)c1nc2cc3c(cc2s1)OCCO3 | inconclusive: 35.7%
64 | O=C(/C=C/[C@H]1O[C@@H](n2ccc(=O)[nH]c2=O)[C@H](O)[C@@H]1O)NCc1cccs1 | active: 22.5%
65 | CN1CCN(C(=O)C[C@H]2CC[C@H]3[C@@H](COC[C@H](O)CN3C(=O)Nc3ccc(F)cc3)O2)CC1 | inactive: -0.931%
66 | C[C@H](CO)N1C[C@H](C)[C@H](CN(C)S(=O)(=O)c2ccccc2)Oc2ncc(/C=C/c3ccccc3)cc2C1=O | inconclusive: 24.3%
67 | CC(=O)NC(CCc1ccc(Cl)c(Cl)c1)c1cccc(O)c(=O)c1 (centres undefined) | inconclusive: 58.9%
68 | CC(=O)Nc1cccc(C(=O)N(Cc2ccccc2)Cc2ccccc2)c1 | inactive: 11.4%
69 | COc1cc(/C=C/C(=O)OCC(=O)N2c3ccccc3CC2C)cc(OC)c1OC (centres undefined) | inconclusive: 31.8%
